Laboratory results as given in article PMC8492312.
No constants are given. Whether binding was seen depends on the method and setting. In cells and extracts the contact can be indirect. Some results given as binding are weak or reduced against the parent protein; the word gives no strength.

Target: T1, SPF45 (mouse (endogenous in Hepa1-6 and in liver)) (UniProt Q8JZX4)
T1 sequence: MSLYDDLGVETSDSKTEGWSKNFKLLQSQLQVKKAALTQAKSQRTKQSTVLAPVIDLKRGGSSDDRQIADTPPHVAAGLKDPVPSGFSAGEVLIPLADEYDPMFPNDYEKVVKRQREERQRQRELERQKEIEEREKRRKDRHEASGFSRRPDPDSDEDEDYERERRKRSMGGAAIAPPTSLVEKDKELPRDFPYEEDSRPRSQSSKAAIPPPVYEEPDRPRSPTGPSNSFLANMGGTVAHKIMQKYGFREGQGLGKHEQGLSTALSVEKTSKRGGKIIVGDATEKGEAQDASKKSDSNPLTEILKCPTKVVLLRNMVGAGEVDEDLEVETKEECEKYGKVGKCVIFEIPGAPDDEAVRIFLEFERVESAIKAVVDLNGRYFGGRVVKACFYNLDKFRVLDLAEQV
Test: co-IP; mouse liver nuclear extracts (0.1% NP-40, Benzonase) incubated with antibodies against spliceosome proteins at 4°C overnight, protein A/G-agarose, blot with lipin 1 antibody; all proteins endogenous

binding: binds
B1: endogenous lipin 1 (protein, UniProt Q91ZP3 1-924)
chain: MNYVGQLAGQVFVTVKELYKGLNPATLSGCIDIIVIRQPNGSLQCSPFHVRFGKMGVLRSREKVVDIEINGESVDLHMKLGDNGEAFFVQETDNDQEIIPMYLATSPILSEGAARMESQLKRNSVDRIRCLDPTTAAQGLPPSDTPSTGSLGKKRRKRRRKAQLDNLKRDDNVNSSEDEDMFPIEMSSDEDTAPMDGSRTLPNDVPPFQDDIPKENFPSISTHPQSASYPSSDREWSPSPSSLVDCQRTPPHLAEGVLSSSCPLQSCHFHASESPSGSRPSTPKSDSELVSKSADRLTPKNNLEMLWLWGELPQAAKSSSPHKMKESSPLGSRKTPDKMNFQAIHSESSDTFSDQSPTMARGLLIHQSKAQTEMQFVNEEDLESLGAAAPPSPVAEELKAPYPNTAQSSSKTDSPSRKKDKRSRHLGADGVYLDDLTDMDPEVAALYFPKNGDPGGLPKQASDNGARSANQSPQSVGGSGIDSGVESTSDSLRDLPSIAISLCGGLSDHREITKDAFLEQAVSYQQFADNPAIIDDPNLVVKVGNKYYNWTTAAPLLLAMQAFQKPLPKATVESIMRDKMPKKGGRWWFSWRGRNATIKEESKPEQCLTGKGHNTGEQPAQLGLATRIKHESSSSDEEHAAAKPSGSSHLSLLSNVSYKKTLRLTSEQLKSLKLKNGPNDVVFSVTTQYQGTCRCEGTIYLWNWDDKVIISDIDGTITRSDTLGHILPTLGKDWTHQGIAKLYHKVSQNGYKFLYCSARAIGMADMTRGYLHWVNERGTVLPQGPLLLSPSSLFSALHREVIEKKPEKFKVQCLTDIKNLFFPNTEPFYAAFGNRPADVYSYKQVGVSLNRIFTVNPKGELVQEHAKTNISSYVRLCEVVDHVFPLLKRSHSCDFPCSDTFSNFTFWREPLPPFENQDMHSASA
